According to patent US20200024574A1, “STEM CELL-DERIVED ASTROCYTES, METHODS OF MAKING AND METHODS OF USE” (MEMORIAL SLOAN-KETTERING CANCER CENTER, priority 2017, published 2020):
At least one structure is not confirmed: it was looked up by name or label, or the drawing left a doubt.

What was measured:
Assay type in all cases: cell-based, human
LTNSCs [1] = test: Immunofluorescence staining of GFAP in Olomoucine-treated LTNSCs; conditions: LIF and Olomoucine, after 12 days (FIG. 21D)
LTNSCs [2] = test: Cell cycle analysis by FACS (propidium iodide) of treated LTNSCs; conditions: LTNSCs treated with Olomoucine, FACS (FIG. 21A)
LTNSCs [3] = test: Quantitative PCR of glial competency genes in Olomoucine-treated LTNSCs

## Cn1cnc2c(NCc3ccccc3)nc(NCCO)nc21 [Olo, Olomoucine]
LTNSCs [1]
  GFAP positive cells: detected GFAP positive cells
LTNSCs [2]
  percentage of cells in G1: triggered an increase in the percentage of cells in G1
LTNSCs [3]; Olo-treated LTNSCs maintained or differentiated for additional 12 days (FIG. 21C)
  expression of NFIA, CD44 and S100: an increased expression of NFIA, CD44 and S100 were detected
LTNSCs [3]; qPCR after 48 hours of Olomoucine (FIG. 21B)
  expression of glial competency genes (NFIA, CD44, S100β): did not immediately increase the expression of glial competency genes
